Values from PubChem BioAssay AID1671195 (Yale University, 2021)
The deposit covers about 22,000 reagents; shown is a part drawn at random. Over the whole deposit, about 1,510 (6.9%) were called active. 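Active includes knockdowns raising or lowering LDL uptake; positive z-scores mean more uptake, negative mean less.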 Unmarked entries are inactive.

- Screen: 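Knockdowns that increase or decrease uptake of fluorescent LDL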 (primary screen)
- Cells: human Huh7 hepatoma cells
- Reagent: siRNA pool against human genes, 18 nM
- Timing: about 2 to 2.5 days of knockdown, then 8 h LDL uptake
- Challenge: DiI-labelled LDL at 30 µg/ml for 8 h, in lipoprotein-deficient serum medium
- Measurement: 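Per-cell DiI-LDL intensity by automated imaging; well means scaled to the plate median and given as a robust z-score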
- Reading the numbers: robust z-score: higher = more LDL uptake after knockdown
- Active means: 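Active when two or more replicates show a robust z-score above 2 or below -2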

Silencing of VEGFB [SID442890997] gave: robust z-score, replicate 1 = 0.784; robust z-score, replicate 2 = 0.131; robust z-score, replicate 3 = 0.115.
Silencing of RPL7AP53 [SID442900042] resulted in: robust z-score, replicate 1 = -0.37; robust z-score, replicate 2 = -0.962; robust z-score, replicate 3 = -0.777.
RNF223 [SID442891686] scored robust z-score, replicate 1 = -0.136; robust z-score, replicate 2 = 0.718; robust z-score, replicate 3 = 0.183.
With knock-down of LOC400733 (retired record) [SID442903929], the screen gave robust z-score, replicate 1 = -1.42; robust z-score, replicate 2 = -1.38; robust z-score, replicate 3 = -1.49.
Silencing of ADCY10 [SID442902605] resulted in: robust z-score, replicate 1 = -1.17; robust z-score, replicate 2 = -0.63; robust z-score, replicate 3 = -1.54.
After knock-down of LOC441149 (retired record) [SID442892709], the screen gave robust z-score, replicate 1 = 0.0575; robust z-score, replicate 2 = 0.111; robust z-score, replicate 3 = 0.228.
For NAT1 [SID442895693] the deposit lists robust z-score, replicate 1 = -0.772; robust z-score, replicate 2 = -0.261; robust z-score, replicate 3 = 0.445.
TSPAN4 [SID442898048] gave robust z-score, replicate 1 = -0.151; robust z-score, replicate 2 = -1.08; robust z-score, replicate 3 = -0.139.
For LOC388137 (retired record) [SID442892868], the entry reads robust z-score, replicate 1 = 0.39; robust z-score, replicate 2 = 0.0949; robust z-score, replicate 3 = -0.139.
PDZRN3 [SID442887444] scored robust z-score, replicate 1 = 1.68; robust z-score, replicate 2 = 0.175; robust z-score, replicate 3 = 0.878.
Against ABCG1 [SID442883526] the deposit lists robust z-score, replicate 1 = 3.18 (active); robust z-score, replicate 2 = 3.25; robust z-score, replicate 3 = 1.77.
Depletion of LOC388519 (retired record) [SID442885157] resulted in: robust z-score, replicate 1 = 1.78; robust z-score, replicate 2 = 1.34; robust z-score, replicate 3 = 1.83.
For GJB6 [SID442891918], the values are robust z-score, replicate 1 = -0.261; robust z-score, replicate 2 = 0.309; robust z-score, replicate 3 = 0.641.
After knock-down of TMPRSS2 [SID442891025] the results were robust z-score, replicate 1 = 0.439; robust z-score, replicate 2 = 0.709; robust z-score, replicate 3 = -0.13.
Knock-down of MAGEE2 [SID442904419] gave: robust z-score, replicate 1 = -1.66; robust z-score, replicate 2 = -1.6; robust z-score, replicate 3 = -1.64.
Silencing of DPF2 [SID442890676] resulted in: robust z-score, replicate 1 = 0.47; robust z-score, replicate 2 = 0.93; robust z-score, replicate 3 = -0.247.
Knock-down of DPM2 [SID442904696] came out at: robust z-score, replicate 1 = -1.79; robust z-score, replicate 2 = -1.71; robust z-score, replicate 3 = -1.94.
Depletion of LOC441467 (retired record) [SID442899364] gave: robust z-score, replicate 1 = -0.315; robust z-score, replicate 2 = -0.566; robust z-score, replicate 3 = -0.948.
For IFNA16 [SID442887119] the deposit lists robust z-score, replicate 1 = 0.758; robust z-score, replicate 2 = 0.501; robust z-score, replicate 3 = 1.69.
Knock-down of WASF2 [SID442886039] resulted in: robust z-score, replicate 1 = 1.1; robust z-score, replicate 2 = 1.13; robust z-score, replicate 3 = 1.62.
CENPU [SID442885202] showed robust z-score, replicate 1 = 1.85; robust z-score, replicate 2 = 1.66; robust z-score, replicate 3 = 1.36.
Knock-down of C4orf33 [SID442902773] came out at: robust z-score, replicate 1 = -1.09; robust z-score, replicate 2 = -1.36; robust z-score, replicate 3 = -0.995.
With knock-down of MMP15 [SID442898079] the results were robust z-score, replicate 1 = -1.03; robust z-score, replicate 2 = -0.831; robust z-score, replicate 3 = 0.483.
With knock-down of CATIP [SID442898731], the screen gave robust z-score, replicate 1 = -0.465; robust z-score, replicate 2 = -0.695; robust z-score, replicate 3 = -0.432.

Quoted from the entries so far, 3 entries:
GJB6 [SID442891918] → robust z-score, replicate 1: -0.261; robust z-score, replicate 2: 0.309; robust z-score, replicate 3: 0.641
TMPRSS2 [SID442891025] → robust z-score, replicate 1: 0.439; robust z-score, replicate 2: 0.709; robust z-score, replicate 3: -0.13
MAGEE2 [SID442904419] → robust z-score, replicate 1: -1.66; robust z-score, replicate 2: -1.6; robust z-score, replicate 3: -1.64
